Reference: paper PMC12697806
Results are given in words; binding and its absence hold for the method and conditions named. Binding seen in cells or lysates may run through a third protein. Some results given as binding are weak or reduced against the parent protein; the word gives no strength. For some assays here: Sequences can lack the tags named with a protein.

Protein sequences, listed by entry. Tags and fused reporters are not part of them.
UniProt Q15365: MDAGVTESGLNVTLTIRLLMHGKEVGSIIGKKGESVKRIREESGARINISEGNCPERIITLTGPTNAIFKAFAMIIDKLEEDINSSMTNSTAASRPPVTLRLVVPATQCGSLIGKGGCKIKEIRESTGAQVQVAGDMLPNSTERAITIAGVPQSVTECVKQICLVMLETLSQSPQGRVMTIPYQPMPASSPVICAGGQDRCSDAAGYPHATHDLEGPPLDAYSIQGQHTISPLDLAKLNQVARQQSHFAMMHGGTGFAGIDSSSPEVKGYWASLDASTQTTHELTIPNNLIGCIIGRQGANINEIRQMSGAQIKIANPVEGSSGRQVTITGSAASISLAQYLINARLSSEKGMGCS

T1: Flag‐OGT (UniProt O15294)
T1 sequence: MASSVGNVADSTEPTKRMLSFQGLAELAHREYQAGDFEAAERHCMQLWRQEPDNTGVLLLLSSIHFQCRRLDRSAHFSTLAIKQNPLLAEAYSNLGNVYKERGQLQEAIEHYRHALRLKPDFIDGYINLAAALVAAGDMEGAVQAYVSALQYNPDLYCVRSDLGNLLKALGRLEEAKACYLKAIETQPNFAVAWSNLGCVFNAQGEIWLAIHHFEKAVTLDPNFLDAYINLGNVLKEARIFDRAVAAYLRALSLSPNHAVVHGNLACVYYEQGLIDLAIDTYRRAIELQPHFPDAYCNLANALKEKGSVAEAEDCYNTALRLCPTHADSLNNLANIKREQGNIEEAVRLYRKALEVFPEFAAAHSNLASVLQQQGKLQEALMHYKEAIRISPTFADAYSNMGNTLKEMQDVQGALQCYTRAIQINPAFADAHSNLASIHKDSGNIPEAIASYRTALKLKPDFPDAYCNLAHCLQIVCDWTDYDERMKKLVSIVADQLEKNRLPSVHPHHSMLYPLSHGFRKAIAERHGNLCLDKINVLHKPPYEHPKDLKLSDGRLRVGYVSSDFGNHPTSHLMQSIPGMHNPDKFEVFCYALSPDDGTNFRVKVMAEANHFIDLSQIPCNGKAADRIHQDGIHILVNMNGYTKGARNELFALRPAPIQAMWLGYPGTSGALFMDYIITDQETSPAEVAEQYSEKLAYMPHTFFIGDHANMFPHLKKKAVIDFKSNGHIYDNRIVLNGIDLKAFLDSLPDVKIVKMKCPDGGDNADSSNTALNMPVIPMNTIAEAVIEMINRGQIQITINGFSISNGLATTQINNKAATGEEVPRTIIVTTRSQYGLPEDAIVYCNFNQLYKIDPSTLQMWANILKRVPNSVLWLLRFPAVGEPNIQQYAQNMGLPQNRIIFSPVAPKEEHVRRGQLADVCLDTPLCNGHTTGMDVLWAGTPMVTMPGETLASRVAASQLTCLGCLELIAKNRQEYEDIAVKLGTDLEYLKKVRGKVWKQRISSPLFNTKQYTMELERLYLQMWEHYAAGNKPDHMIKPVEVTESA

B1: OGT (endogenous) (enzyme, UniProt O15294 1-1046)
chain: T1 sequence

What was measured:
Flag‐OGT = target: T1, Flag‐OGT; assay: co-IP; HEK293T cells co-transfected with V5-PCBP1, Flag-OGT and/or circPRELID2 for 48 h; IP and immunoblot (Figure 7g)
[1] = target: PCBP1 (endogenous) (human (endogenous in HGC-27 and AGS)) (UniProt Q15365); assay: co-IP; endogenous proteins; lysates of HGC-27-shNC or shcircPRELID2 cells under normoxia or hypoxia, HGC-27 lysates untreated or with RNase R, and AGS cells with NC, circPRELID2-WT or circPRELID2-Mut; IP and immunoblot (Figures 7c, 7e, 7f, S7e)

Molecule | binding (Flag‐OGT) | binding [1]
V5‐PCBP1 (from UniProt Q15365 1-356) | binds | –
B1 | – | binds
